According to paper doi:10.1101/2024.12.06.627180:
These are yes or no findings as the source states them, for the method shown. Binding seen in cells or lysates may run through a third protein. Some entries that bind do so weakly or less than the wild type.

Chains of the proteins cited; added tags and fusions are not shown. Lines headed by an entry give the natural chain unless they say otherwise; changes in a name come on top. A line that says so, or that is headed by a name, gives the form on record, which may keep a tag or linker. Residues count along the entry.
UniProt Q99816: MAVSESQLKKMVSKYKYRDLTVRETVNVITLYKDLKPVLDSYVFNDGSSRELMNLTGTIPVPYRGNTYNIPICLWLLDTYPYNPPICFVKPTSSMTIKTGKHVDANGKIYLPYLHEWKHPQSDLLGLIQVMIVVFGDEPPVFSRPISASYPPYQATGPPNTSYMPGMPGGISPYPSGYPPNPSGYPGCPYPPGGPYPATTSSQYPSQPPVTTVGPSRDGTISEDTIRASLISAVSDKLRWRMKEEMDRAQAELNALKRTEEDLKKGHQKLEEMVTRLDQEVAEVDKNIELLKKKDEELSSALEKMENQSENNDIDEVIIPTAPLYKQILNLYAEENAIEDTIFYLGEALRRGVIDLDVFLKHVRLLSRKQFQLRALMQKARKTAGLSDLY
TSG101-UEV-GFP: residues 2-145 of Q99816
TSG101-UEV mutant M95A (Q99816, form named): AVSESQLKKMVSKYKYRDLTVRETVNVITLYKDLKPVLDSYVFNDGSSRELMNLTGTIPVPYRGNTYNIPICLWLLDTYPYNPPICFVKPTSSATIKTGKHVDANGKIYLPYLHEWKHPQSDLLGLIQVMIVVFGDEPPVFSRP
TSG101-UEV mutant N45A (Q99816, form named): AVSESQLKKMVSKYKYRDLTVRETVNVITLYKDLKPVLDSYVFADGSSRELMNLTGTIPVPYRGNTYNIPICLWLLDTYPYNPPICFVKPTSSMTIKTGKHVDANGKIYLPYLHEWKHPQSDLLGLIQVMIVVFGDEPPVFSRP
UniProt P60842: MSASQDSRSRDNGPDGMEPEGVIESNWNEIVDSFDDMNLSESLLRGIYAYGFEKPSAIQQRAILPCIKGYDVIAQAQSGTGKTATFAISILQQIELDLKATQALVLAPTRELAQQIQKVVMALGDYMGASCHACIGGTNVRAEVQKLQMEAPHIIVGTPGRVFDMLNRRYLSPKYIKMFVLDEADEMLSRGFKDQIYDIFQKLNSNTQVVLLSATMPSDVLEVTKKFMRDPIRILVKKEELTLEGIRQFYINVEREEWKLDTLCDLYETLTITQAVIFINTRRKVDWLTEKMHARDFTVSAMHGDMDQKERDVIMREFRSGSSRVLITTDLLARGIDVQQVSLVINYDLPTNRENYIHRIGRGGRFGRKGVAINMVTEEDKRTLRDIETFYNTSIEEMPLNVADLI
UniProt P06730: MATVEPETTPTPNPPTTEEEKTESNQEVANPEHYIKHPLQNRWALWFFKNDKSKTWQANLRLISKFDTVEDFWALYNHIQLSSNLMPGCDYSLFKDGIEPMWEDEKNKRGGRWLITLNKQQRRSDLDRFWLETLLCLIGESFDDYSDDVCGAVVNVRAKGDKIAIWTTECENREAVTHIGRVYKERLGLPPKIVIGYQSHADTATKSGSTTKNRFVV

Experiments:
[1] = target: TSG101 (human (endogenous in OVCAR8)) (UniProt Q99816); test: proximity ligation
[2] = target: TSG101-GFP fusion protein (UniProt Q99816); test: co-IP
[3] = target: TSG101-UEV mutant M95A (UniProt Q99816); test: co-IP
[4] = target: TSG101-UEV mutant N45A (UniProt Q99816); test: co-IP
[5] = target: TSG101-UEV-GFP (UniProt Q99816); test: co-IP
[6] = target: eIF4A1-GFP fusion protein (UniProt P60842); test: co-IP
[7] = target: eIF4E-GFP fusion protein (UniProt P06730); test: co-IP

binding [1] | binding [2] | binding [3] | binding [4] | binding [5] | binding [6] | binding [7] | Substance
binds | binds | binds | no binding | binds |  |  | eIF4A1 (from UniProt P60842 1-406)
 |  |  |  |  | binds | binds | TSG101 (from UniProt Q99816 1-390)
binds | binds | binds | no binding | binds |  |  | eukaryotic translation initiation factor 4E (eIF4E) (from UniProt P06730 1-217)
